Reference: PubChem BioAssay AID248 (DTP/NCI, 2004)
The list does not hold the whole screen: it is rich in T/C values a quarter to a half above the control, in often repeated tests (any T/C) and in doses without a T/C. Other doses and runs of a compound stand elsewhere. T/C is the treated group as % of the vehicle group. Some doses have a count of surviving animals in place of a T/C: the source files T/C as zero there, which appears to mark a toxic dose or a test without result, not a measured value. Some doses without a T/C left all or most animals alive at the check, yet need not have been tolerated: survival well below the control is almost never listed, so the zero probably covers shortened survival too. Survivors were counted at the toxicity check, usually on the fifth day, unless a day is given; later deaths do not show. Schedules are NCI's codes, taken here to give the interval after Q, in days (D) or hours (H), and the number of doses after X. Some schedules carry Z or #; the key to these is not given. For survival time, this PubChem deposit counts one and a half times the control or more as active, and values a quarter to a half above the control carry no call in these data; other NCI protocols may use other cut-offs. Some doses were run more than once; the results are listed from low to high.

Tested on: L1210 leukemia ip in BDF1 mice, survival T/C
Assay: NCI In Vivo Anticancer Drug Screen. Data for tumor model L1210 Leukemia (intraperitoneal) in B6D2F1 (BDF1) mice
Conditions: T/C endpoint: mean survival time, higher T/C = longer survival
[1] = dose: 250.0 mg/kg/injection, schedule: Q01DX Z (ip), vehicle: carboxymethylcellulose (CMC)
[2] = dose: 500.0 mg/kg/injection, schedule: Q01DX Z (ip), vehicle: carboxymethylcellulose (CMC)
[3] = dose: 200.0 mg/kg/injection, schedule: Q04DX002 (ip), vehicle: Klucel (hydroxypropylcellulose) (HPC)
[4] = dose: 400.0 mg/kg/injection, schedule: Q01DX001 (ip), vehicle: carboxymethylcellulose (CMC)
[5] = dose: 100.0 mg/kg/injection, schedule: Q01DX009 (ip), vehicle: Klucel (hydroxypropylcellulose) (HPC)
[6] = dose: 200.0 mg/kg/injection, schedule: Q01DX009 (ip), vehicle: Klucel (hydroxypropylcellulose) (HPC)
[7] = dose: 100.0 mg/kg/injection, schedule: Q04DX002 (ip), vehicle: Klucel (hydroxypropylcellulose) (HPC)
[8] = dose: 200.0 mg/kg/injection, schedule: Q01DX001 (ip), vehicle: Klucel (hydroxypropylcellulose) (HPC)
[9] = dose: 400.0 mg/kg/injection, schedule: Q01DX009 (ip), vehicle: Klucel (hydroxypropylcellulose) (HPC)
[10] = dose: 200.0 mg/kg/injection, schedule: Q04DX003 (ip), vehicle: Klucel (hydroxypropylcellulose) (HPC)

CCOc1ccccc1/C=N/N=C(N)N
survivor count [1]: 0 of 6
survivor count [2]: 0 of 6

N#CC(O)c1ccc([N+](=O)[O-])cc1 (configuration not stated)
survivor count (dose: 50.0 mg/kg/injection, schedule: Q04DX002 (ip), vehicle: saline with Tween-80): 0 of 3
survivor count (dose: 100.0 mg/kg/injection, schedule: Q04DX002 (ip), vehicle: saline with Tween-80): 0 of 3
survivor count (dose: 200.0 mg/kg/injection, schedule: Q04DX002 (ip), vehicle: saline with Tween-80): 0 of 3
survivor count (dose: 400.0 mg/kg/injection, schedule: Q04DX002 (ip), vehicle: saline with Tween-80): 0 of 3

Cc1cc(C)n(/N=C/c2ccc3c(c2)CCC3)c(=O)c1C#N
survivor count (dose: 100.0 mg/kg/injection, schedule: Q04DX003 (ip), vehicle: Klucel (hydroxypropylcellulose) (HPC)): 6 of 6

O=C(O)CCCCCCCCCCCCCCC(=O)O
survivor count [3]: 3 of 3

C/C=C(C)/C=N/Nc1nnc(N/N=C/C(C)=C/C)c2ccccc12
survivor count [4]: 0 of 4

CC/C(=N\N=C(/CC)c1ccccc1)c1ccccc1
survivor count [5]: 6 of 6
survivor count [6]: 6 of 6

Nc1nccc(N2CCCCC2)n1
survivor count (dose: 100.0 mg/kg/injection, schedule: Q04DX003 (ip), vehicle: saline with Tween-80): 3 of 6
survivor count (dose: 200.0 mg/kg/injection, schedule: Q04DX003 (ip), vehicle: saline with Tween-80): 0 of 6
survivor count (dose: 400.0 mg/kg/injection, schedule: Q04DX003 (ip), vehicle: saline with Tween-80): 0 of 6

CN1C(=O)CC(/C=C\[N+](=O)[O-])c2ccccc21 (configuration not stated)
survivor count (dose: 200.0 mg/kg/injection, schedule: Q01DX001 (ip), vehicle: carboxymethylcellulose (CMC)): 2 of 4

CC(=O)Nc1cc(C)cc(C)n1
survivor count (dose: 350.0 mg/kg/injection, schedule: Q01DX009 (ip), vehicle: saline with Tween-80): 0 of 6

[Cl][Hg][c]1ccco1
survivor count (dose: 6.25 mg/kg/injection, schedule: Q01DX009 (ip), vehicle: Klucel (hydroxypropylcellulose) (HPC)): 3 of 6
survivor count (dose: 12.5 mg/kg/injection, schedule: Q01DX009 (ip), vehicle: Klucel (hydroxypropylcellulose) (HPC)): 0 of 6
survivor count (dose: 25.0 mg/kg/injection, schedule: Q01DX009 (ip), vehicle: Klucel (hydroxypropylcellulose) (HPC)): 0 of 6
survivor count (dose: 50.0 mg/kg/injection, schedule: Q01DX009 (ip), vehicle: Klucel (hydroxypropylcellulose) (HPC)): 0 of 6
survivor count [5]: 0 of 6
survivor count [7]: 0 of 3
survivor count [3]: 0 of 3
survivor count (dose: 400.0 mg/kg/injection, schedule: Q04DX002 (ip), vehicle: Klucel (hydroxypropylcellulose) (HPC)): 0 of 3

CC1(C)CN1P(=O)(OCCc1ccccc1)N1CC1(C)C (configuration not stated)
survivor count (dose: 100.0 mg/kg/injection, schedule: Q04DX002 (ip), vehicle: saline): 1 of 3
survivor count (dose: 200.0 mg/kg/injection, schedule: Q04DX002 (ip), vehicle: saline): 0 of 3
survivor count (dose: 400.0 mg/kg/injection, schedule: Q04DX002 (ip), vehicle: saline): 0 of 3

CC(C)C(C)/C=C\C(C)C1CCC2C3=CCC4CC(=O)CCC4(C)C3CCC21C (configuration not stated)
survivor count (dose: 100.0 mg/kg/injection, schedule: Q01DX001 (ip), vehicle: Klucel (hydroxypropylcellulose) (HPC)): 3 of 3
survivor count [8]: 3 of 3

CN(C)CCOC(=O)c1ccccc1CCl
survivor count (dose: 87.5 mg/kg/injection, schedule: Q01DX009 (ip), vehicle: saline): 1 of 6
survivor count (dose: 175.0 mg/kg/injection, schedule: Q01DX009 (ip), vehicle: saline): 0 of 6
survivor count (dose: 350.0 mg/kg/injection, schedule: Q01DX009 (ip), vehicle: saline): 0 of 6

Clc1ncnc2scnc12
survivor count [4]: 0 of 4

CCC[N+](C)(C)CC
survivor count (dose: 150.0 mg/kg/injection, schedule: Q01DX001 (ip), vehicle: saline): 2 of 6

CCO/C=C1\SC(=S)N(c2cccc(O)c2)C1=O
survivor count [5]: 6 of 6
survivor count [6]: 1 of 6
survivor count [9]: 0 of 6

N=C(N)c1ccc(OCCCCCCOc2ccc(C(=N)N)cc2)cc1
survivor count (dose: 100.0 mg/kg/injection, schedule: Q01DX001 (ip), vehicle: saline): 1 of 4
survivor count (dose: 200.0 mg/kg/injection, schedule: Q01DX001 (ip), vehicle: saline): 0 of 4
survivor count (dose: 400.0 mg/kg/injection, schedule: Q01DX001 (ip), vehicle: saline): 0 of 4

O=C(CCN1CC1)Nc1ccc(Cl)c(Cl)c1
survivor count [5]: 1 of 6
survivor count [10]: 2 of 6
survivor count (dose: 400.0 mg/kg/injection, schedule: Q04DX003 (ip), vehicle: Klucel (hydroxypropylcellulose) (HPC)): 0 of 6

COc1cc(NS(C)(=O)=O)ccc1Nc1c2ccccc2nc2cc(C(F)(F)F)c(N)cc12
T/C (dose: 50.0 mg/kg/injection, schedule: Q04DX002 (ip), vehicle: Klucel (hydroxypropylcellulose) (HPC)): 126 % of control
T/C [5]: 130 and 144 % of control
T/C [7]: 133 % of control
T/C [10]: 138 % of control
survivor count [9]: 5 of 6

CN(C)NCCC#N
T/C (dose: 150.0 mg/kg/injection, schedule: Q01DX009 (ip), vehicle: saline): 133 and 141 % of control
survivor count (dose: 225.0 mg/kg/injection, schedule: Q01DX009 (ip), vehicle: saline): 6 of 6
survivor count (dose: 300.0 mg/kg/injection, schedule: Q01DX009 (ip), vehicle: saline): 6 of 6
T/C (dose: 400.0 mg/kg/injection, schedule: Q01DX009 (ip), vehicle: saline sonified): 127 % of control
survivor count (dose: 600.0 mg/kg/injection, schedule: Q01DX009 (ip), vehicle: saline): 0 of 6

NC(N)=N/N=C(/c1ccccc1)c1ccc2ccccc2c1
survivor count (dose: 240.0 mg/kg/injection, schedule: Q01DX Z (ip), vehicle: methylcellulose (MC)): 3 of 6
survivor count (dose: 360.0 mg/kg/injection, schedule: Q01DX Z (ip), vehicle: methylcellulose (MC)): 1 of 6
survivor count (dose: 480.0 mg/kg/injection, schedule: Q01DX Z (ip), vehicle: methylcellulose (MC)): 0 of 6
survivor count (dose: 600.0 mg/kg/injection, schedule: Q01DX Z (oral), vehicle: methylcellulose (MC)): 3 of 6

CCNC(C)(C)C(SSSC(c1cccs1)C(C)(C)NCC)c1cccs1 (configuration not stated)
survivor count (dose: 200.0 mg/kg/injection, schedule: Q04DX003 (ip), vehicle: saline): 6 of 6
survivor count (dose: 400.0 mg/kg/injection, schedule: Q04DX003 (ip), vehicle: saline): 0 of 6

O=C(NCCCCCCCCCCCCNC(=O)Nc1cccc(C2=NCC(O)CN2)c1)Nc1cccc(C2=NCC(O)CN2)c1 (configuration not stated)
survivor count [1]: 1 of 5
survivor count [2]: 0 of 6

N#Cc1[nH]cnc1[N+]#N
survivor count (dose: 25.0 mg/kg/injection, schedule: Q01DX001 (ip), vehicle: other): 2 of 6
survivor count (dose: 50.0 mg/kg/injection, schedule: Q01DX001 (ip), vehicle: other): 0 of 6
survivor count (dose: 100.0 mg/kg/injection, schedule: Q01DX001 (ip), vehicle: other): 0 of 6
survivor count (dose: 200.0 mg/kg/injection, schedule: Q01DX001 (ip), vehicle: other): 0 of 6
survivor count (dose: 400.0 mg/kg/injection, schedule: Q01DX001 (ip), vehicle: other): 0 of 6

CC(C)CCC[C@@H](C)[C@H]1CC[C@H]2[C@@H]3CC[C@H]4C[C@H]5N[C@H]5C[C@]4(C)[C@H]3CC[C@]12C
survivor count [8]: 6 of 6
